Test results from publication PMC10681313.
Positions count from the first letter of the chain named. Where two headings read alike, the source gives them in different places. Results are given in words; binding and its absence hold for the method and conditions named. Binding seen in cells or lysates may run through a third protein. Some binding calls cover weakened binding; strength is not graded here. For some of these results: Where a sequence is shown, tags or fusion partners need not be part of it. Blank lines part the entries; values can stand above or below the molecule they belong to.

Amino acid sequences for entries named in this document (tags omitted).
UniProt P61407: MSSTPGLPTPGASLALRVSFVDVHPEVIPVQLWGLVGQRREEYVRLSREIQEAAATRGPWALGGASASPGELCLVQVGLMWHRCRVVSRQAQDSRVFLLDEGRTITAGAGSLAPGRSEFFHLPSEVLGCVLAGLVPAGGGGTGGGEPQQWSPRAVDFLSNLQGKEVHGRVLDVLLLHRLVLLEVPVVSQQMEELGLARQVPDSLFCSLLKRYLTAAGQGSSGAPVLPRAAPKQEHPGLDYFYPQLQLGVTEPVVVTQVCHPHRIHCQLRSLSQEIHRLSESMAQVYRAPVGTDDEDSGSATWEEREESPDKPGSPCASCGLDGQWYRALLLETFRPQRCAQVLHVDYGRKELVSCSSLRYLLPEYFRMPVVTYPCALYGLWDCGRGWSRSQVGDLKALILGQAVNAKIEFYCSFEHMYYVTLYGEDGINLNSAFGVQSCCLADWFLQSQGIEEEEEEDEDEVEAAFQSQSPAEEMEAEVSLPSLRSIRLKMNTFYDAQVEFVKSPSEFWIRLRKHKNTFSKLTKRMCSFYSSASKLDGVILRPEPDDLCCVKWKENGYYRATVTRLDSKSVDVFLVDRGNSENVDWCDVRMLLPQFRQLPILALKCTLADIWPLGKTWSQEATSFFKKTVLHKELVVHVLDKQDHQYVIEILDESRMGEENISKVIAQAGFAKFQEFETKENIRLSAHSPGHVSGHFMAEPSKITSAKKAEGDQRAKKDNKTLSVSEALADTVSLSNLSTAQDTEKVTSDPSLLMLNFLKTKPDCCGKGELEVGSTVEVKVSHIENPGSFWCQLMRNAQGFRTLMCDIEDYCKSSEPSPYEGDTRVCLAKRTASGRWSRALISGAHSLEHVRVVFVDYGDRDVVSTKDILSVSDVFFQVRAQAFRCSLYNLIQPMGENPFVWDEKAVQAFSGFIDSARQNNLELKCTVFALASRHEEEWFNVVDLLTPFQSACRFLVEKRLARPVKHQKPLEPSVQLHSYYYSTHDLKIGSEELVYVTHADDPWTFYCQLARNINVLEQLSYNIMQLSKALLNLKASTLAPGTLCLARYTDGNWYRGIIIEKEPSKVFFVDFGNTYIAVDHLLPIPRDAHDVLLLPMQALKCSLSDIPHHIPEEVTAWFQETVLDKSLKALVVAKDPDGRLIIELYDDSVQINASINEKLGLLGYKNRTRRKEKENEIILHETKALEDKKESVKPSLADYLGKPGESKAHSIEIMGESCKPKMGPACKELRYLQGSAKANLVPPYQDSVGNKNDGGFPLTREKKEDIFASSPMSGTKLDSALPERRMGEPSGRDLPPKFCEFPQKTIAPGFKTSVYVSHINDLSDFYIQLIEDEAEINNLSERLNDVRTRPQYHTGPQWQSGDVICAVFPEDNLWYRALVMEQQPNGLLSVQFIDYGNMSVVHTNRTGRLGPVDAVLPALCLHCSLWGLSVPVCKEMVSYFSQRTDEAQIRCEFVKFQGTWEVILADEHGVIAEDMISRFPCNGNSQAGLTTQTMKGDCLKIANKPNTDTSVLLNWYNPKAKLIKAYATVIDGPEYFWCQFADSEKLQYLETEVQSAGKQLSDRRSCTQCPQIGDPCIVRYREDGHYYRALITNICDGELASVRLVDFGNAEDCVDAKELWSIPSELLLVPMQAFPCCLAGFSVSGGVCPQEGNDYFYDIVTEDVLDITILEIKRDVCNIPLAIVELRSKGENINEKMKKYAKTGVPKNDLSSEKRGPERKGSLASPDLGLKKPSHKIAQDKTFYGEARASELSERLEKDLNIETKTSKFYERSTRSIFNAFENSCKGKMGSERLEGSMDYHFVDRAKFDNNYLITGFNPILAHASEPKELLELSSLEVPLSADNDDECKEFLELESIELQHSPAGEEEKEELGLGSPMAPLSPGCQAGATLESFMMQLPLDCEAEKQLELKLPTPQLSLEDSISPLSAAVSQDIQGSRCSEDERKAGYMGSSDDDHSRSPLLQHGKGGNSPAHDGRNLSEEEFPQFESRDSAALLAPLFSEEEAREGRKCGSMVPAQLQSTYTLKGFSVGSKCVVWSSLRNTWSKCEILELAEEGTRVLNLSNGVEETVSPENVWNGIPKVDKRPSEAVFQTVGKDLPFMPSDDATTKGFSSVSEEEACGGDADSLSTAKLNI

Legend:
[1] = target: MIWI (endogenous, mouse testes) (mouse (endogenous in testes)) (UniProt Q9JMB7); assay: co-IP; mouse testis lysates (20 mM HEPES pH 7.3, 150 mM NaCl, 2.5 mM MgCl2, 0.2% NP-40, 1 mM DTT); immunoprecipitation with anti-MIWI antibody and protein-A agarose, 4 h at 4°C; Western blotting of MIWI, TDRKH, TDRD6
[2] = target: T1, FLAG-tagged MIWI (mouse), Q9JMB7; assay: co-IP; HEK293T cells co-transfected with FLAG-tagged MIWI or MIWI^RK and GFP-tagged proteins; after 48 h immunoprecipitation with anti-FLAG M2 Affinity Gel; Western blotting with anti-GFP and anti-FLAG; settings: remark: other sources report otherwise
T1 chain: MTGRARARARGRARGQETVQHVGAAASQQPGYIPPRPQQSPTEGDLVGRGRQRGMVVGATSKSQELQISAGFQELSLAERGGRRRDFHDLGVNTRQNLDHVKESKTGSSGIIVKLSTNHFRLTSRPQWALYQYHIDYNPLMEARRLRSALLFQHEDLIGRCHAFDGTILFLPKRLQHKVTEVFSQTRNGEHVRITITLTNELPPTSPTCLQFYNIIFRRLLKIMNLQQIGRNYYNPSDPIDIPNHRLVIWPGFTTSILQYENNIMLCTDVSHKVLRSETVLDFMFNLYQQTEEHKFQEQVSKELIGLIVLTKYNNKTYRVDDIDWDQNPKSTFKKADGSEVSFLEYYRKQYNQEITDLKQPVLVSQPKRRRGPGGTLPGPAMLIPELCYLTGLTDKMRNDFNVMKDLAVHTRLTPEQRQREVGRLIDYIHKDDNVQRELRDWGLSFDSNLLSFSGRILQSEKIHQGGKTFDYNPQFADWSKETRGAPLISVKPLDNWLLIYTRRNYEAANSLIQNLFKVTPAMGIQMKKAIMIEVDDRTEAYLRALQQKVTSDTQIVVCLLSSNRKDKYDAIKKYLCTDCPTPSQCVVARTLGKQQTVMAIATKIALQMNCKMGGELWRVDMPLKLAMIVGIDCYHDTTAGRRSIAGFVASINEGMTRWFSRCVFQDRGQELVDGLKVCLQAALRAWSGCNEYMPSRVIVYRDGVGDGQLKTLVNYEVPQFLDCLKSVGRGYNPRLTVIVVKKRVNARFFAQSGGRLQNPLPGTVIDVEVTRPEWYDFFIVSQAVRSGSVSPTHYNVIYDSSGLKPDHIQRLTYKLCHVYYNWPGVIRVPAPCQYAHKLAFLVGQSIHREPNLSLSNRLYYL

[3] = target: MIWI (endogenous, mouse testes) (mouse (endogenous in testes)) (UniProt Q9JMB7); assay: co-IP; mouse testis lysates (20 mM HEPES pH 7.3, 150 mM NaCl, 2.5 mM MgCl2, 0.2% NP-40, 1 mM DTT); immunoprecipitation with anti-MIWI antibody and protein-A agarose, 4 h at 4°C; Western blotting of MIWI, TDRKH, TDRD6; remark: listed apart in the source
[4] = target: T2, FLAG-tagged MIWI^RK (mouse), Q9JMB7; assay: co-IP; HEK293T cells co-transfected with FLAG-tagged MIWI or MIWI^RK and GFP-tagged proteins; after 48 h immunoprecipitation with anti-FLAG M2 Affinity Gel; Western blotting with anti-GFP and anti-FLAG; settings: remark: other sources report otherwise
T2 chain: T1 chain with R4K, R6K, R8K, R10K, R12K, R14K

binding [1]: binds
Molecule: TDRD6 (endogenous, mouse testes) (from UniProt P61407 1-2134)

binding [3]: binds
B2: TDRKH (endogenous, mouse testes) (protein, UniProt Q80VL1 1-560)
chain: MSTERTSWTNLSTIQKIALGLGIPASATVAYILYRRYRESREERLTFVGEDDIEIEMRVPQEAVKLIIGRQGANIKQLRKQTGARIDVDTEDVGDERVLLISGFPVQVCKAKAAIHQILTENTPVFEQLSVPQRSVGRIIGRGGETIRSICKASGAKITCDKESEGTLLLSRLIKISGTQKEVAAAKHLILEKVSEDEELRKRIAHSAETRVPRKQPISVRREEVTEPGGAGEAALWKNTNSSMGPATPLEVPLRKGGGDMVVVGPKEGSWEKPNDDSFQNSGAQSSPETSMFEIPSPDFSFHADEYLEVYVSASEHPNHFWIQIIGSRSLQLDKLVSEMTQHYENSLPEDLTVHVGDIVAAPLSTNGSWYRARVLGTLENGNLDLYFVDFGDNGDCALKDLRALRSDFLSLPFQAIECSLARIAPTGEEWEEEALDEFDRLTHCADWKPLVAKISSYVQTGISTWPKIYLYDTSDEKKLDIGLELVRKGYAVELPEDMEENRTVPNMLKDMATETDDSLASILTETKKSPEEMPHTLSCLSLSEAASMSGDDNLEDDLF

The remaining lines, values behind:

B1: GFP-tagged PNLDC1, B2RXZ1 1-531 (protein)
chain: MDVGADEFEQSLPLLQELVAGADFVGLDIEFTGLRSNLSRPQQISLFDLPSEWYLKTRQSVQQFTICQIGLSMFSSIEGESNKYVAHSCNFFLFPTTFGILDSEFSFQASSVQFLNQYGFDYNKFLKNGIPYMNEEQEKKIKHSILRGNWRVRSSLDKDQIKVVIDKVTQWLDLAEEGDQMTLPGIAGFQAFEVQLVLRQALPNIWTVLKEEWVIVKKVSQPQRWYLEHASCDQVSCWKEQILLSARGFSVFFQMLVKAQKPLVGHNMMMDLLHLHEKFFRPLPESYDQFKQNIHSLFPVLIDTKNVTKDIWKELRFPRVSNLLEVYEVLSSNLNPTKDSGPVIIHARQCKKYAETKCPHEAAYDAFLCGSVLLKVAHLLLQRVHGNGAVHEPAFPQYLDVLAPYVNQVNLIRAGVPKINFSGPDYPSIRPPVLILTVKRWPGVSEQQVYREFQNLCKFDVRRFTRSQFLLLTNKFKDARSVLKEYRNHPTLQVSLYRSWRHSPNITCLLQVCSIVTTWAMIAFLLGRPMP
binding [2]: binds

B3: GFP-tagged TDRD5, Q5VCS6 1-1040 (protein)
chain: MSEQERIQDCLRKEIRSLLISTKDGLTPQQLEKEYLLMVGNHLPLRILGYRSTMELVLDMPDVVSVCPGGDGTVILKAIPDESTKGIASLVAKQRRSHKVRNSMPKGRPSICSGRVPYRGRVPPILPAVVKSELKDLLALSPVLLSDFEKAFARRFGRSFQYMQYGFLSMFEVLNAASDVISVEQTRAGSLLTLKKSVSEDKQRGWPAGKVFTQPFRMKQQGSYSTGFPVMKAHFSQPISNMEPPKQVLSMAKTPTFNSVEASRLNHTEKLNQLESTFKSVIAQIGPGGTVDPELKRKIQFVVSKFPQGLFISKLLGEFELTFKEQLSPKQLGFLNVTELVGALSDILRVEFSEERQDLLVFDADLKPLPSGGPLSSVRNSCLVQPDKKTEANPWTSSLSRNSLSTVAVKKTTWDCPLKNQKEPEQKIYKKPNLVVKPLQLQVETNKPQLSLSVANHDIPPDAVRAKKLCRLPPLDTSTLVGVFVEYIISPSQFYIRIYSRDSSELLEDMMIEMRRCYSNQLVSDRYIMPEYFIQPGHLCCVKISEDKWWYRVIIHRILGKKEVEVFYPDFGNIGTVQKSSLRFLKCCYTKLPAQAIPCSLAWVRPAEEHWTARAILHFQKLCGLKPLVGVVDEYIDGILNIFLCDTSSNEDVYFHHVLRTEGHAIVCRENAPSKGFRDFNPPALYTNASSAGDMVLTDLGHPAQQHYLNEDQEILQQAQQDINDGKCISYLKSAPKELLKDSKLSSLKTHKSCEEDPRWSILQPKDLKEENEDEVPTGMPCLESVTIGDDVWDENWLPLQAKMGKAGSPASQLFTSNLVGKKQYQTGGEMAQKDWCFSTSKDIWDDSWQPLGLANDVKGGIHTPEGPIAQEKNTSTTRIQQQPDLQYPLDSSTLPKLEEFYISLIKSQQSAERSQSEPASIQTHAGRAASKALSSTPAVGDSPENHSGSVESSPGSLKKEDVSNSRAEATAKDKSQGAIDQLSFILSPQHQISQKLYIPRSTATAVLGAAARLATSRSLLHWYPSVKGGKLEAERDGVK
binding [4]: binds
